Measurements published in paper PMC4632068.
No constants are given. Whether binding was seen depends on the method and setting. Binding seen in cells or lysates may run through a third protein. A yes stands for co-enrichment or nearness to the bait. Other partners may have been found. Sequences can lack the tags named with a protein. Values belong to the binder of their own block, whether it stands above or below them.

Target: T1, Dhh1−GFP (S. cerevisiae (endogenous in BY4741-derived yeast)) (UniProt P39517)
T1 sequence: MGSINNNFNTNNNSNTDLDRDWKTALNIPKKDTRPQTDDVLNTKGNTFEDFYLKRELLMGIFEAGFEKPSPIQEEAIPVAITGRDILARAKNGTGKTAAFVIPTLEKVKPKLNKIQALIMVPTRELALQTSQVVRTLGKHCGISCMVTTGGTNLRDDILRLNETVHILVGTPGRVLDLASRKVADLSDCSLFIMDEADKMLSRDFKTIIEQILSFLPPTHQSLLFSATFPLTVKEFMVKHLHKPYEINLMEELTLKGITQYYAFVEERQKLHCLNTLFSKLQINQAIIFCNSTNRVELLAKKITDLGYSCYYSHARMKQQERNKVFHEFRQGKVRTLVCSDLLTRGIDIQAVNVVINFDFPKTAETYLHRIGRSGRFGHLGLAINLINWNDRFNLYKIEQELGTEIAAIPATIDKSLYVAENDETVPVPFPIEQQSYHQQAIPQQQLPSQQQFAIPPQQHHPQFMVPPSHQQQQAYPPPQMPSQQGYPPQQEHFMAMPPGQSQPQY
Assay: affinity purification with mass spectrometry; Dhh1−GFP captured by anti-GFP IgG cross-linked to Protein-G Dynabeads from cleared lysate of cryo-ground yeast; RB buffer (30 mM K-Hepes pH 7.4, 150 mM KCl, 2 mM MgCl2, 0.2% NP-40, 0.1% Tween-20, 1 mM DTT, RNase inhibitor), 30 min at 4°; five purifications (two +glucose YPD, three 30 min −glucose YEP); hits filtered by SAINT against CRAPome controls

binding: binds
B1: Ask10 (protein, UniProt P48361 1-1146)
chain: MSDYFSSRPSQTLTPMGNKPSGGGGGDDASSIHSKSSQYLMDILPDSMTLNESVSSIVANNQAKEFILPETDERSPYFINVPIPKAQPTSTTETKKPLAGDEAIDGQFVKEYPTDILVDRFYKWKKILKGLVIYLREVAYAQEQFARINYQLKGSVKFPFLTDIDETTNTITDPFTTAPRGPKKAQPAQKKVGLTDSEQFQMQMQQEQQENAVQAPTDESKMSLAPHEYKPVQTTESDNTSAASGFVKFGSGSIQDIQVILKKYHLSLANQQFKISKEITSTVIPKLEELRKDLRYKITEIKDLHGDFKTNIGAHIQLTSQLLKKYIAAVKFMNAHGIGNDRASPTNKKPHKLDPKHDPYLLKLQLDLQLKRQVAEETYLQEAFINLQSSGLQLEKIIYTKIQHALLRYSALIDSEARLMIKNMCQELQHGIISKPPAFEWDNFVTQHPSCLLNWKSNDPIPPPRKVSDVIYPHMKSPLAKCIKAGYFLKKSELLPTYHQGYFVLTSNYIHEFQSSDFYNLSSSTPNSTKSSAYSSSVSIADTYANANNAKANNHHRQASDVHNSSTTTGGTAGANGIRGIRKKSYLAPIMSIPLNDCTLKDASSTKFVLVGKPTLNENADVRKSSSSTYLSGSSQASLPKYGHETAKIFSKAPFHKFLKGSKPKNKNTKSSELDQFYAAAQKESNNYVTWTFKIVSPEPSEEELKHFKRWVQDLKNLTSFNDTKDRIKFIEDRVMKSHRFKAGHMSRNSVNIGSHTPCLTDSTFTLQDGTTTSVNLKGRAEKPQYIHIQNNSLADFDGNGFRSKVNTPAIDDYGNLITVERRPAQSPHQYSDYMATSGNTTPSYSSGSRPQSMYNGYNPAVSITSNGMMLQQSTANNNTNPTTNLRHQRNISQTSSLPGFSYTSLSLPVNSPGSSNSESSSGGYFAIPLHGNNNNNNYTQRNSEGSSPCYNDDQIRQQQQPLQMQPLSRTSSSSVNVTAMRSTSAGNSITANAPVVPKVMVNNQNVKTVAADQSATAPSSPTMNSSVTTINRESPYQTLKKTNSTGNVPCLTAEKTHAHPAFYKRGNNSAQNLTTSSSTASRVHPIRKHKKNVSFSSLNSLMFSKKGANHGGNLMTNQFMSGGIQEDDGDSTNNDTIKLNQSIYS

binding: binds
B2: Dps1 (protein, UniProt P04802 1-557)
chain: MSQDENIVKAVEESAEPAQVILGEDGKPLSKKALKKLQKEQEKQRKKEERALQLEAEREAREKKAAAEDTAKDNYGKLPLIQSRDSDRTGQKRVKFVDLDEAKDSDKEVLFRARVHNTRQQGATLAFLTLRQQASLIQGLVKANKEGTISKNMVKWAGSLNLESIVLVRGIVKKVDEPIKSATVQNLEIHITKIYTISETPEALPILLEDASRSEAEAEAAGLPVVNLDTRLDYRVIDLRTVTNQAIFRIQAGVCELFREYLATKKFTEVHTPKLLGAPSEGGSSVFEVTYFKGKAYLAQSPQFNKQQLIVADFERVYEIGPVFRAENSNTHRHMTEFTGLDMEMAFEEHYHEVLDTLSELFVFIFSELPKRFAHEIELVRKQYPVEEFKLPKDGKMVRLTYKEGIEMLRAAGKEIGDFEDLSTENEKFLGKLVRDKYDTDFYILDKFPLEIRPFYTMPDPANPKYSNSYDFFMRGEEILSGAQRIHDHALLQERMKAHGLSPEDPGLKDYCDGFSYGCPPHAGGGIGLERVVMFYLDLKNIRRASLFPRDPKRLRP

binding: binds
B3: Mes1 (protein, UniProt P00958 1-751)
chain: MSFLISFDKSKKHPAHLQLANNLKIALALEYASKNLKPEVDNDNAAMELRNTKEPFLLFDANAILRYVMDDFEGQTSDKYQFALASLQNLLYHKELPQQHVEVLTNKAIENYLVELKEPLTTTDLILFANVYALNSSLVHSKFPELPSKVHNAVALAKKHVPRDSSSFKNIGAVKIQADLTVKPKDSEILPKPNERNILITSALPYVNNVPHLGNIIGSVLSADIFARYCKGRNYNALFICGTDEYGTATETKALEEGVTPRQLCDKYHKIHSDVYKWFQIGFDYFGRTTTDKQTEIAQHIFTKLNSNGYLEEQSMKQLYCPVHNSYLADRYVEGECPKCHYDDARGDQCDKCGALLDPFELINPRCKLDDASPEPKYSDHIFLSLDKLESQISEWVEKASEEGNWSKNSKTITQSWLKDGLKPRCITRDLVWGTPVPLEKYKDKVLYVWFDATIGYVSITSNYTKEWKQWWNNPEHVSLYQFMGKDNVPFHTVVFPGSQLGTEENWTMLHHLNTTEYLQYENGKFSKSRGVGVFGNNAQDSGISPSVWRYYLASVRPESSDSHFSWDDFVARNNSELLANLGNFVNRLIKFVNAKYNGVVPKFDPKKVSNYDGLVKDINEILSNYVKEMELGHERRGLEIAMSLSARGNQFLQENKLDNTLFSQSPEKSDAVVAVGLNIIYAVSSIITPYMPEIGEKINKMLNAPALKIDDRFHLAILEGHNINKAEYLFQRIDEKKIDEWRAKYGGQQV
